In the supplement of paper PMC10849652:
Some of the results follow.

By UniProt entry, the sequences of proteins in these tests, tags left out. Where a name states a change or a piece, a line headed by the entry shows the natural chain unless it says otherwise.
UniProt Q9Y608: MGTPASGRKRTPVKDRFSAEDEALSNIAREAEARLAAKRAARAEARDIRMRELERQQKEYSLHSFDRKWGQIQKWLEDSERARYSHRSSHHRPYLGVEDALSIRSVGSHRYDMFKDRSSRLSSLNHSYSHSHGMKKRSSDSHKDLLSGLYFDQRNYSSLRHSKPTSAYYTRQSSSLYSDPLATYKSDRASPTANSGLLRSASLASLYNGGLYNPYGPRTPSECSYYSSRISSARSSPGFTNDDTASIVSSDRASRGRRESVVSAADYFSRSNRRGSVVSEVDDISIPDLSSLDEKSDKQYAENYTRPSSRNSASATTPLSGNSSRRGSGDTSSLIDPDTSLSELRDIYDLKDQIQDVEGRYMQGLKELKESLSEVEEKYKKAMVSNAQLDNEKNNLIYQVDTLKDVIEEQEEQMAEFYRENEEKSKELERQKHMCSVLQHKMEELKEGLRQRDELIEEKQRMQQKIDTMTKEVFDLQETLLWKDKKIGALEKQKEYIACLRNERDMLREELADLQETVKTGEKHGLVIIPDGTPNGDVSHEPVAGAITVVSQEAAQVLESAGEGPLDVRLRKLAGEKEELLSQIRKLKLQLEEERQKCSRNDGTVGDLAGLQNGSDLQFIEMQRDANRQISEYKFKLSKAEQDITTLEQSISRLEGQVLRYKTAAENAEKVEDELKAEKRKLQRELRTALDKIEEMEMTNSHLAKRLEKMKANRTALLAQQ
UniProt Q8IV50: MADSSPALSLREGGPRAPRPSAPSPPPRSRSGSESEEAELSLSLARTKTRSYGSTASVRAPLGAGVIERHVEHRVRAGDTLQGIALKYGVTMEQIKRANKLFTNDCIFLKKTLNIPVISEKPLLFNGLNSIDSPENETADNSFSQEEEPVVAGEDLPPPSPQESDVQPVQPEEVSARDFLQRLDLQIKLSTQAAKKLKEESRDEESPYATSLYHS
UniProt Q7L5Y9: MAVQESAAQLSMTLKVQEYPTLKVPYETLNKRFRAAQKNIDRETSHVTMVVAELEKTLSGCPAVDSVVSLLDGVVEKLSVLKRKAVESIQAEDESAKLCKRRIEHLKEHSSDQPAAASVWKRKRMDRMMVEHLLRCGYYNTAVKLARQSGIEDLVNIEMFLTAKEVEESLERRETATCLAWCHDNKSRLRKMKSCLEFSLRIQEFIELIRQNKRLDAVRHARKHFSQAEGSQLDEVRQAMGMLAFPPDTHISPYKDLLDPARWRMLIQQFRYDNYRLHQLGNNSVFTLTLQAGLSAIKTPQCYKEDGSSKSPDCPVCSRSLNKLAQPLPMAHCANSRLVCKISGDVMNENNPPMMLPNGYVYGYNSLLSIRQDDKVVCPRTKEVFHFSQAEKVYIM
UniProt O60476: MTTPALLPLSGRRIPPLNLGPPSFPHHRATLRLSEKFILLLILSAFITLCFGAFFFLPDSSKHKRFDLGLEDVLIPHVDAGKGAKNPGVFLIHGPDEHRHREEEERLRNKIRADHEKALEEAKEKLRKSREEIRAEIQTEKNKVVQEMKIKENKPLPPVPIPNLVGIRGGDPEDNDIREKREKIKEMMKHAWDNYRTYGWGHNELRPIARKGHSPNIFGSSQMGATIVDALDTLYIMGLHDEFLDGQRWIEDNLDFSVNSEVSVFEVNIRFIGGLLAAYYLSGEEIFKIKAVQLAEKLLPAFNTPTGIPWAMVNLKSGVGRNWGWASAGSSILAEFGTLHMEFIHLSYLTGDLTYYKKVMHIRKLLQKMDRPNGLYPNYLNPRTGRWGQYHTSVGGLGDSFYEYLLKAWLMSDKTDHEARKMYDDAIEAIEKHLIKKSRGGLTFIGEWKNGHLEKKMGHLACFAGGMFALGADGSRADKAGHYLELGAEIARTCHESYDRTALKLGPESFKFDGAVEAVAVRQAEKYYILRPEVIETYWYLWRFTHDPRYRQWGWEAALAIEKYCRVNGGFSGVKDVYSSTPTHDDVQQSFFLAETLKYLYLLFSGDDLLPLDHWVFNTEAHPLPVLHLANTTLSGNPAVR
UniProt Q5U5X0: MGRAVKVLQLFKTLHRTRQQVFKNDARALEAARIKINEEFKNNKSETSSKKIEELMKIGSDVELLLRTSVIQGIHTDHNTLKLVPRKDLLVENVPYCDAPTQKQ
UniProt Q96S90: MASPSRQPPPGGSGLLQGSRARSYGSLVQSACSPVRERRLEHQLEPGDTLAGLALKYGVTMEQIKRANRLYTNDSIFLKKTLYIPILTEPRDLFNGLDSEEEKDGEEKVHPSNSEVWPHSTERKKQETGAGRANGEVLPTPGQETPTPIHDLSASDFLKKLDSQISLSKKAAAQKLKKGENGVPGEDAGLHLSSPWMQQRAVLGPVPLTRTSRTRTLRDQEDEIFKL
UniProt Q9HD34: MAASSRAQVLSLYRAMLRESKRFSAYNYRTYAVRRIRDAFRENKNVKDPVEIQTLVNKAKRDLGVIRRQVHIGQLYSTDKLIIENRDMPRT
UniProt O15479: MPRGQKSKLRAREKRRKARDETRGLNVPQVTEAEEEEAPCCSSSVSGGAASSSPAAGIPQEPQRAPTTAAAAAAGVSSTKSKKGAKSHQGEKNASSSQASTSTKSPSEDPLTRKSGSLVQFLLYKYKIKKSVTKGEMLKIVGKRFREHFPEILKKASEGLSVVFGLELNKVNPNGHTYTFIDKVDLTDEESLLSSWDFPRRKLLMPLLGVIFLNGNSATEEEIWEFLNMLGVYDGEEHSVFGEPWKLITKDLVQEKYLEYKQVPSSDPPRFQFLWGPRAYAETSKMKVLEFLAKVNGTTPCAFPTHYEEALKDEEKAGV
UniProt Q9BX40: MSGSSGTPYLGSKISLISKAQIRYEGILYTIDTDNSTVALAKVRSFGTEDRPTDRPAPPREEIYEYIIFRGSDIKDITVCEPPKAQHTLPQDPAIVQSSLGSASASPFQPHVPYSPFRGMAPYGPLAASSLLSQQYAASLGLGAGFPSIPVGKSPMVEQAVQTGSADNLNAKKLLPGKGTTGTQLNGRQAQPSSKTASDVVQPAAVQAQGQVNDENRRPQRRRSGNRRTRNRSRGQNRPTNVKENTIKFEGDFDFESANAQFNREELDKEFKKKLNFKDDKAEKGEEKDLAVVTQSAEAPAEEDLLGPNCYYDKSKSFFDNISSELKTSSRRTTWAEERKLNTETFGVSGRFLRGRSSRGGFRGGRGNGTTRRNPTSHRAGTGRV
UniProt P45985: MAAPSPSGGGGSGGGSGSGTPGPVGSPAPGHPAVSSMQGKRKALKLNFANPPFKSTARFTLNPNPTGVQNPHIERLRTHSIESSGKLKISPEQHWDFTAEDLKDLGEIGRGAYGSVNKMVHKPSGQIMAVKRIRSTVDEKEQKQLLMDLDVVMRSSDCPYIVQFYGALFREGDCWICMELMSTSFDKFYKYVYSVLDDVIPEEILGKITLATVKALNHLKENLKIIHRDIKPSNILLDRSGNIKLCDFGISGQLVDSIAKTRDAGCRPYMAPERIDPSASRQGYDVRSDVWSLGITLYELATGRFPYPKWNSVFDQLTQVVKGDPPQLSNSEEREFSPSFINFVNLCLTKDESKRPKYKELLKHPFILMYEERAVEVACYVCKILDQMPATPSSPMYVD
UniProt Q7Z3D4: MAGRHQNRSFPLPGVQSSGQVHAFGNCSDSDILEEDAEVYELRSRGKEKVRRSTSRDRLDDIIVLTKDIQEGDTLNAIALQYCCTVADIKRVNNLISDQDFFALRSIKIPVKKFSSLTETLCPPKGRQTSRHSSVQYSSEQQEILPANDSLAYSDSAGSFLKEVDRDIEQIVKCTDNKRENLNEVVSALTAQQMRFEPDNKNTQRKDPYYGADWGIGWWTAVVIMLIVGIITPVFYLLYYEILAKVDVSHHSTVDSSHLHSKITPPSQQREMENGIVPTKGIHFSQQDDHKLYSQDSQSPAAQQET
UniProt P02788: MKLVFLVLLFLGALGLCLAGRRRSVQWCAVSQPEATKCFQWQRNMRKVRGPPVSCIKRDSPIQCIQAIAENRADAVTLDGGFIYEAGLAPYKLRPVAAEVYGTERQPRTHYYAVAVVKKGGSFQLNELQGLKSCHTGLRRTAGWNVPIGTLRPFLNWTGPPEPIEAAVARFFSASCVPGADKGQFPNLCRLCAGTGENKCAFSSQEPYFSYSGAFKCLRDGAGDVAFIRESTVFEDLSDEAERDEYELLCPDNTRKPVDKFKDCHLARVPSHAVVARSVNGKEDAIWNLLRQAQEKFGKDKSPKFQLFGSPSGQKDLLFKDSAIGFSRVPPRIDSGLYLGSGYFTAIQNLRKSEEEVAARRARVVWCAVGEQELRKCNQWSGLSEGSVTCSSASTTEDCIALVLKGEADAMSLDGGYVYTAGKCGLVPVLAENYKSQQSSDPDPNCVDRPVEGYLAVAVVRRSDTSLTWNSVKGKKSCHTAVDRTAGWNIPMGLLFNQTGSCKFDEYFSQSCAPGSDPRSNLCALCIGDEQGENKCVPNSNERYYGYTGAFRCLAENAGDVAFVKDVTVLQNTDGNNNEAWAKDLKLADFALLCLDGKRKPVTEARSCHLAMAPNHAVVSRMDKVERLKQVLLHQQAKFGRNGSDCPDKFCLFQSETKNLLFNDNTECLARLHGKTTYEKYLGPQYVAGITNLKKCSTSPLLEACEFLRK
UniProt Q15691: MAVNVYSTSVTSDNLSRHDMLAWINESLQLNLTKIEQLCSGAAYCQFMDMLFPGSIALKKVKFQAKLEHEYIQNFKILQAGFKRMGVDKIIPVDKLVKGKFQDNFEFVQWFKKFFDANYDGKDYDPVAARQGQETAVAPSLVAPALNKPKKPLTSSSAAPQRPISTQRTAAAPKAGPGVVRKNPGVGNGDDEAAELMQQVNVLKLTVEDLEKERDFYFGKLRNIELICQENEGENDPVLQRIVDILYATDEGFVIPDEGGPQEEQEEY
UniProt Q9UKM7: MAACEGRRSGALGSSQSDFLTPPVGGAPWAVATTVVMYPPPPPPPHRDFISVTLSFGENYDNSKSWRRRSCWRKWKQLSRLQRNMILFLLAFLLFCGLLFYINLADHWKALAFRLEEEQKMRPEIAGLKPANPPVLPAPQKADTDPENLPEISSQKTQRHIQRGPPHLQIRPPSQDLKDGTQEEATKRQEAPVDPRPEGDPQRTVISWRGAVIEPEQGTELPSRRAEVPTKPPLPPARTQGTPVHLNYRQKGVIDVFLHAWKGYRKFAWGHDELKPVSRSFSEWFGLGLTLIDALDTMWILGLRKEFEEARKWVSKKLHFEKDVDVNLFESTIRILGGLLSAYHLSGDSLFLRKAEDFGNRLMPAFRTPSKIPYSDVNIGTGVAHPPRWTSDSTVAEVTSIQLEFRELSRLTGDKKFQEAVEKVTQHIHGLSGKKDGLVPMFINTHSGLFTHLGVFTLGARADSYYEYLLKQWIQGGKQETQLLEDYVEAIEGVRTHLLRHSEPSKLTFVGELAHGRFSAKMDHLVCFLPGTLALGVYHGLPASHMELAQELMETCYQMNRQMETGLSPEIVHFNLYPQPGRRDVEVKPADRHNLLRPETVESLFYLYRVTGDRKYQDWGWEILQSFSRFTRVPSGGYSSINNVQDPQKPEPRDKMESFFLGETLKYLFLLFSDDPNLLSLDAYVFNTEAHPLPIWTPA

What was measured:
Test in all cases: log2 fold change, soluble protein after heating vs DMSO (PISA); higher = thermal stabilisation; K562 cells, 10 uM, 30 min; active = over 0.2 and 3.5 SD of the protein, either way, in both replicates (recomputed)
[1] = compound: CS(=O)(=O)c1ccc(-c2cnc(N)c(C(=O)Nc3ccccc3)n2)cc1
Procedure, shortened: (§1)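 K562 cells at 2×10^6 cells/mL were given 10 μM compound for 30 min. Aliquots then went through 3 min of heating across 48°C-58°C, were pooled, and were extracted in PBS with 0.5% NP-40 at 4°C, and the supernatant after 21,000xg for 90 min was quantified by TMTpro 16plex LC-MS/MS with channel sums equalised. Thermal stability relative to control samples, from duplicates, is given as log2 fold change.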

[2] = compound: C[C@@H](Oc1cc(-c2cnn(C3CCNCC3)c2)cnc1N)c1c(Cl)ccc(F)c1Cl [crizotinib]
Procedure, shortened: as §1

[3] = compound: C[C@@H]1COCCN1C2=NC(=NC(=C2)C3(CC3)S(=O)(=O)C)C4=C5C=CNC5=CC=C4
Procedure, shortened: as §1

[4] = compound: C[C@H](C1=CC=C(C=C1)C(=O)NC2=C3C=CNC3=NC=C2)N
Procedure, shortened: as §1

[5] = compound: C[C@H](Nc1ncnc2nc[nH]c12)c1cc2cccc(Cl)c2c(=O)n1-c1ccccc1 [duvelisib]
Procedure, shortened: as §1

[6] = compound: Cc1cc(Nc2cc(CN3CCOCC3)c3nc(C)c(Cc4ccc(Cl)cc4F)n3n2)n[nH]1 [gandotinib]
Procedure, shortened: as §1

[7] = compound: Cc1cc(Nc2cc(N3CCN(C)CC3)nc(Sc3ccc(NC(=O)C4CC4)cc3)n2)n[nH]1 [tozasertib]
Procedure, shortened: as §1

[8] = compound: Cc1cc(SCc2sc(-c3ccc(C(F)(F)F)cc3)nc2C)ccc1OCC(=O)O
Procedure, shortened: as §1

[9] = compound: Cc1ccc(-n2nc(C(C)(C)C)cc2NC(=O)Nc2ccc(OCCN3CCOCC3)c3ccccc23)cc1 [doramapimod]
Procedure, shortened: as §1

[10] = compound: Cc1ccc(C(=O)N(CCCN)[C@@H](c2nc3cc(Cl)ccc3c(=O)n2Cc2ccccc2)C(C)C)cc1 [ispinesib]
Procedure, shortened: as §1

[11] = compound: Cc1ccc(NC(=O)c2ccc(CN3CC[C@H](N(C)C)C3)c(C(F)(F)F)c2)cc1Nc1nccc(-c2cncnc2)n1 [bafetinib]
Procedure, shortened: as §1

[12] = compound: Cc1cccc(CC(=O)N2CCc3c2ccc(-c2cn(C)c4ncnc(N)c24)c3F)n1
Procedure, shortened: as §1

[13] = compound: Cc1cn(-c2cc(NC(=O)c3ccc(C)c(Nc4nccc(-c5cccnc5)n4)c3)cc(C(F)(F)F)c2)cn1 [nilotinib]
Procedure, shortened: as §1

[14] = compound: Cc1nc(Nc2n[nH]c3c2CN(C(=O)N[C@H](CN(C)C)c2ccccc2)C3(C)C)c2sccc2n1
Procedure, shortened: as §1

[15] = compound: Cc1nc(Nc2ncc(C(=O)Nc3c(C)cccc3Cl)s2)cc(N2CCN(CCO)CC2)n1 [dasatinib]
Procedure, shortened: as §1

[16] = compound: Cc1ncc(-c2ccnc(Nc3ccc(S(C)(=O)=O)cc3)n2)n1C(C)C
Procedure, shortened: as §1

[17] = compound: Cn1cc(-c2ccc3c(c2)CCN3C(=O)Cc2cccc(C(F)(F)F)c2)c2c(N)ncnc21
Procedure, shortened: as §1

[18] = compound: Cn1cc(-c2ccc3nnc(C(F)(F)c4ccc5ncccc5c4)n3n2)cn1
Procedure, shortened: as §1

[19] = compound: Cn1cncc1[C@@](N)(c1ccc(Cl)cc1)c1ccc2c(c1)c(-c1cccc(Cl)c1)cc(=O)n2C [tipifarnib]
Procedure, shortened: as §1

[20] = compound: FC(F)(F)c1ccc(/C=C/c2nc(COc3ccc(CCCCn4ccnn4)cc3)co2)cc1 [mubritinib]
Procedure, shortened: as §1

Measured: log2 fold change

LRRFIP2 (UniProt Q9Y608)
inactive: [1] 0.009 | [2] 0.052 | [3] 0.036 | [4] -0.009 | [5] 0.055 | [6] 0.159 | [7] -0.042 | [8] -0.06 | [9] -0.007 | [10] 0.081 | [11] -0.019 | [12] -0.063 | [13] 0.11 | [14] -0.037 | [15] 0.023 | [16] 0.003 | [17] -0.011 | [18] 0.037 | [19] 0.055 | [20] 0.004

MACF1 (UniProt H3BQK9)
inactive: [1] -0.087 | [2] -0.028 | [3] 0.085 | [4] 0.155 | [5] 0.244 | [6] -0.041 | [7] 0.005 | [8] 0.082 | [9] 0.068 | [10] -0.142 | [11] 0.222 | [12] -0.078 | [13] 0.078 | [14] -0.157 | [15] -0.126 | [16] -0.062 | [17] -0.076 | [18] 0.011 | [19] 0.148 | [20] -0.026

LYSMD2 (UniProt Q8IV50)
inactive: [1] -0.051 | [2] 0.063 | [3] 0.011 | [4] 0.018 | [5] 0.066 | [6] 0.048 | [7] 0.019 | [8] -0.009 | [9] -0.036 | [10] -0.004 | [11] -0.045 | [12] -0.012 | [13] 0.005 | [14] -0.016 | [15] 0.008 | [16] 0.013 | [17] -0.008 | [18] -0.027 | [19] 0.038 | [20] 0.018

MAEA (UniProt Q7L5Y9)
inactive: [1] -0.038 | [2] 0.042 | [3] 0.019 | [4] 0.011 | [5] -0.051 | [6] 0.019 | [7] 0.094 | [8] 0.001 | [9] 0.044 | [10] -0.002 | [11] -0.001 | [12] -0.01 | [13] -0.023 | [14] -0.021 | [15] 0.007 | [16] 0.02 | [17] -0.045 | [18] 0.003 | [19] 0.008 | [20] 0.002

MAN1A2 (UniProt O60476)
inactive: [1] -0.01 | [2] 0.016 | [3] 0.044 | [4] 0.006 | [5] 0.017 | [6] -0.059 | [7] -0.012 | [8] 0.003 | [9] -0.026 | [10] -0.041 | [11] -0.112 | [12] -0.005 | [13] -0.005 | [14] -0.014 | [15] -0.011 | [16] 0.009 | [17] 0.021 | [18] 0.065 | [19] 0.012 | [20] 0.012

LYRM7 (UniProt Q5U5X0)
inactive: [1] 0 | [2] -0.017 | [3] 0.07 | [4] -0.041 | [5] 0.027 | [6] -0.056 | [7] 0.046 | [8] 0.007 | [9] -0.018 | [10] 0.084 | [11] -0.021 | [12] 0.015 | [13] 0.025 | [14] 0.035 | [15] -0.015 | [16] -0.027 | [17] 0.049 | [18] -0.034 | [19] 0.001 | [20] -0.032

LYSMD1 (UniProt Q96S90)
inactive: [1] -0.059 | [2] -0.008 | [3] 0.002 | [4] -0.021 | [5] 0.035 | [6] -0.155 | [7] -0.005 | [8] -0.021 | [9] 0.012 | [10] 0.006 | [11] -0.039 | [12] 0.032 | [13] 0.048 | [14] -0.058 | [15] 0.038 | [16] -0.018 | [17] 0.009 | [18] -0.048 | [19] -0.038 | [20] 0.064

LYRM4 (UniProt Q9HD34)
inactive: [1] -0.01 | [2] -0.015 | [3] -0.032 | [4] -0.015 | [5] 0.017 | [6] -0.071 | [7] -0.02 | [8] -0.009 | [9] 0.002 | [10] 0.043 | [11] -0.016 | [12] 0.011 | [13] -0.001 | [14] 0.041 | [15] -0.101 | [16] 0.022 | [17] 0.023 | [18] 0.063 | [19] -0.087 | [20] 0.047

Quoted from the listing (2 entries):
LYRM7 (UniProt Q5U5X0)
inactive: [1] 0 | [2] -0.017 | [3] 0.07 | [4] -0.041 | [5] 0.027 | [6] -0.056 | [7] 0.046 | [8] 0.007 | [9] -0.018 | [10] 0.084 | [11] -0.021 | [12] 0.015 | [13] 0.025 | [14] 0.035 | [15] -0.015 | [16] -0.027 | [17] 0.049 | [18] -0.034 | [19] 0.001 | [20] -0.032

LYSMD1 (UniProt Q96S90)
inactive: [1] -0.059 | [2] -0.008 | [3] 0.002 | [4] -0.021 | [5] 0.035 | [6] -0.155 | [7] -0.005 | [8] -0.021 | [9] 0.012 | [10] 0.006 | [11] -0.039 | [12] 0.032 | [13] 0.048 | [14] -0.058 | [15] 0.038 | [16] -0.018 | [17] 0.009 | [18] -0.048 | [19] -0.038 | [20] 0.064

Following part.

MAGEB2 (UniProt O15479)
inactive: [1] -0.101 | [2] 0.008 | [3] -0.255 | [4] 0.353 | [5] -0.249 | [6] 0.103 | [7] -0.008 | [8] 0.118 | [9] 0.121 | [10] -0.239 | [11] 0.141 | [12] -0.105 | [13] -0.07 | [14] 0.024 | [15] 0.114 | [16] -0.021 | [17] 0.015 | [18] -0.127 | [19] 0.172 | [20] -0.516

LSM14B (UniProt Q9BX40)
inactive: [1] -0.092 | [2] -0.024 | [3] -0.119 | [4] 0.077 | [5] -0.028 | [6] 0.081 | [7] 0.048 | [8] 0.138 | [9] 0.066 | [10] -0.165 | [11] 0.076 | [12] 0.06 | [13] -0.073 | [14] -0.109 | [15] -0.04 | [16] 0.05 | [17] -0.049 | [18] -0.055 | [19] -0.021 | [20] 0.096

MAP2K4 isoform 2 (UniProt P45985)
inactive: [1] -0.011 | [2] -0.068 | [3] 0.102 | [4] -0.049 | [5] 0.027 | [6] -0.007 | [7] 0 | [8] 0.021 | [9] -0.039 | [10] -0.006 | [11] 0.015 | [12] 0.108 | [13] 0.008 | [14] -0.016 | [15] -0.019 | [16] -0.038 | [17] 0.033 | [18] -0.029 | [19] 0.022 | [20] 0.079

LYSMD3 (UniProt Q7Z3D4)
inactive: [1] -0.061 | [2] 0.035 | [3] 0.158 | [4] -0.215 | [5] -0.022 | [6] 0.063 | [7] -0.076 | [8] -0.034 | [9] -0.033 | [10] -0.039 | [11] -0.127 | [12] -0.123 | [13] -0.041 | [14] 0.054 | [15] 0.015 | [16] -0.028 | [17] 0.028 | [18] 0.063 | [19] -0.086 | [20] 0

LTF (UniProt P02788)
inactive: [1] -0.123 | [2] 0.089 | [3] -0.068 | [4] 0.19 | [5] -0.27 | [6] -0.039 | [7] -0.065 | [8] -0.11 | [9] 0.169 | [10] 0.146 | [11] 0.437 | [12] -0.029 | [13] 0.043 | [14] -0.008 | [15] 0.05 | [16] 0.451 | [17] 0.116 | [18] -0.038 | [19] 0.015 | [20] -0.26

MAPRE1 (UniProt Q15691)
inactive: [1] 0.013 | [2] 0.021 | [3] 0.055 | [4] -0.055 | [5] 0.008 | [6] -0.12 | [7] 0.007 | [8] 0.024 | [9] -0.011 | [10] 0.021 | [11] -0.034 | [12] -0.008 | [13] -0.014 | [14] -0.042 | [15] -0.066 | [16] -0.008 | [17] 0.017 | [18] -0.033 | [19] -0.046 | [20] 0.018

MAPRE2 (UniProt Q15555)
inactive: [1] -0.068 | [2] -0.179 | [3] -0.309 | [4] -0.014 | [5] -0.096 | [6] -0.039 | [7] 0.103 | [8] 0.126 | [9] 0.106 | [10] 0.145 | [11] 0.288 | [12] 0.026 | [13] 0.131 | [14] -0.099 | [15] -0.069 | [16] 0.071 | [17] -0.016 | [18] -0.133 | [19] -0.069 | [20] -0.007

MAN1B1 (UniProt Q9UKM7)
inactive: [1] 0.057 | [2] -0.131 | [3] 0.09 | [4] 0.086 | [5] 0.047 | [6] -0.01 | [7] -0.064 | [8] -0.019 | [9] -0.012 | [10] -0.079 | [11] -0.044 | [12] 0.016 | [13] -0.025 | [14] -0.027 | [15] 0.055 | [16] -0.039 | [17] -0.004 | [18] 0.02 | [19] -0.014 | [20] -0.002
